# Measured values as given in PubChem BioAssay (EPA / NIEHS).
# By UniProt entry, the sequences of proteins in these tests, tags left out. Where a name states a change or a piece, a line headed by the entry shows the natural chain unless it says otherwise.
# UniProt P03372, whole entry, looked up: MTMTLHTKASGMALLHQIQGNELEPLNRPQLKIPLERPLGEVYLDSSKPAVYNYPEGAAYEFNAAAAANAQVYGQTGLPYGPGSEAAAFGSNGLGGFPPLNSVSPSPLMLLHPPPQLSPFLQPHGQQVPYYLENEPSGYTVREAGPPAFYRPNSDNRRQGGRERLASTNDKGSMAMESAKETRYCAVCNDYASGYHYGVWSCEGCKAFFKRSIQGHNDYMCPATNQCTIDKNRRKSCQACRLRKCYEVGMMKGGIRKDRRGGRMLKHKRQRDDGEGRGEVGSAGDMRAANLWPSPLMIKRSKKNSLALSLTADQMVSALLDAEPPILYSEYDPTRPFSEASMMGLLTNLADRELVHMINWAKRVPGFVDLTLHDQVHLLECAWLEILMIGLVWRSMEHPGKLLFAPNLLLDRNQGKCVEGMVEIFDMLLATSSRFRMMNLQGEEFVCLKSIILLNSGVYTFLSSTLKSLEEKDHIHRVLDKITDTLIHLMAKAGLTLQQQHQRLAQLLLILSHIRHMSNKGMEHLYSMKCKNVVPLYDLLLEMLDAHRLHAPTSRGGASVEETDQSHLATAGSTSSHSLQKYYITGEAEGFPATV
# UniProt Q92731, whole entry, looked up: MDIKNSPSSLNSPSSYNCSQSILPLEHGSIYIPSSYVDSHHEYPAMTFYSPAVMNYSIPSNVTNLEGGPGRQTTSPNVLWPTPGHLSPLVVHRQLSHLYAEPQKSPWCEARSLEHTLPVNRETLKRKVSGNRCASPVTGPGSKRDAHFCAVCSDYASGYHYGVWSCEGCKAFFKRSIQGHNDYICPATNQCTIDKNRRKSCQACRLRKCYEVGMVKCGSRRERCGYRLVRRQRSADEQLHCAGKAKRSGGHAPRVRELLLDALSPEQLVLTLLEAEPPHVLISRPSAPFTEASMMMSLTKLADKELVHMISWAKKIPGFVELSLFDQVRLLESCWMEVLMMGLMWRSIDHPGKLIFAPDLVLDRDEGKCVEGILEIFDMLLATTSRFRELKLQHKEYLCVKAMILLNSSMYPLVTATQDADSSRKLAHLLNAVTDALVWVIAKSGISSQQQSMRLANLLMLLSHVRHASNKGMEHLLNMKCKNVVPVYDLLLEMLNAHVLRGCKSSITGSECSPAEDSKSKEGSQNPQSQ
# UniProt P20309, whole entry, looked up: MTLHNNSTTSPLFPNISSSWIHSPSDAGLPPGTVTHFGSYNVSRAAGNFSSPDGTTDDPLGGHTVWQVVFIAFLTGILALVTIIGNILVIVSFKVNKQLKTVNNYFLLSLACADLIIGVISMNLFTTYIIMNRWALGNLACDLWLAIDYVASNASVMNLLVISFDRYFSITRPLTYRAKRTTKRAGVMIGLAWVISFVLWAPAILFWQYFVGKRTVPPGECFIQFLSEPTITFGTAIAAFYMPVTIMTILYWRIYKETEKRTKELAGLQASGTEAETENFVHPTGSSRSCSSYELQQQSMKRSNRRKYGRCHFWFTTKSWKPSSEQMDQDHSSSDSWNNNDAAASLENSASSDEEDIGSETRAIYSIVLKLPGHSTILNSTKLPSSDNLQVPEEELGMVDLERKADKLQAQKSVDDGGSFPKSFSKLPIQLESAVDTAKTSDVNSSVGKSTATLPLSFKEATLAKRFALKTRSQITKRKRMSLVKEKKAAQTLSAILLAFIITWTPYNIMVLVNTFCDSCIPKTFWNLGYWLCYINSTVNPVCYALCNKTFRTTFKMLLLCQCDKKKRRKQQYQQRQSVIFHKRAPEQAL
# UniProt P08581: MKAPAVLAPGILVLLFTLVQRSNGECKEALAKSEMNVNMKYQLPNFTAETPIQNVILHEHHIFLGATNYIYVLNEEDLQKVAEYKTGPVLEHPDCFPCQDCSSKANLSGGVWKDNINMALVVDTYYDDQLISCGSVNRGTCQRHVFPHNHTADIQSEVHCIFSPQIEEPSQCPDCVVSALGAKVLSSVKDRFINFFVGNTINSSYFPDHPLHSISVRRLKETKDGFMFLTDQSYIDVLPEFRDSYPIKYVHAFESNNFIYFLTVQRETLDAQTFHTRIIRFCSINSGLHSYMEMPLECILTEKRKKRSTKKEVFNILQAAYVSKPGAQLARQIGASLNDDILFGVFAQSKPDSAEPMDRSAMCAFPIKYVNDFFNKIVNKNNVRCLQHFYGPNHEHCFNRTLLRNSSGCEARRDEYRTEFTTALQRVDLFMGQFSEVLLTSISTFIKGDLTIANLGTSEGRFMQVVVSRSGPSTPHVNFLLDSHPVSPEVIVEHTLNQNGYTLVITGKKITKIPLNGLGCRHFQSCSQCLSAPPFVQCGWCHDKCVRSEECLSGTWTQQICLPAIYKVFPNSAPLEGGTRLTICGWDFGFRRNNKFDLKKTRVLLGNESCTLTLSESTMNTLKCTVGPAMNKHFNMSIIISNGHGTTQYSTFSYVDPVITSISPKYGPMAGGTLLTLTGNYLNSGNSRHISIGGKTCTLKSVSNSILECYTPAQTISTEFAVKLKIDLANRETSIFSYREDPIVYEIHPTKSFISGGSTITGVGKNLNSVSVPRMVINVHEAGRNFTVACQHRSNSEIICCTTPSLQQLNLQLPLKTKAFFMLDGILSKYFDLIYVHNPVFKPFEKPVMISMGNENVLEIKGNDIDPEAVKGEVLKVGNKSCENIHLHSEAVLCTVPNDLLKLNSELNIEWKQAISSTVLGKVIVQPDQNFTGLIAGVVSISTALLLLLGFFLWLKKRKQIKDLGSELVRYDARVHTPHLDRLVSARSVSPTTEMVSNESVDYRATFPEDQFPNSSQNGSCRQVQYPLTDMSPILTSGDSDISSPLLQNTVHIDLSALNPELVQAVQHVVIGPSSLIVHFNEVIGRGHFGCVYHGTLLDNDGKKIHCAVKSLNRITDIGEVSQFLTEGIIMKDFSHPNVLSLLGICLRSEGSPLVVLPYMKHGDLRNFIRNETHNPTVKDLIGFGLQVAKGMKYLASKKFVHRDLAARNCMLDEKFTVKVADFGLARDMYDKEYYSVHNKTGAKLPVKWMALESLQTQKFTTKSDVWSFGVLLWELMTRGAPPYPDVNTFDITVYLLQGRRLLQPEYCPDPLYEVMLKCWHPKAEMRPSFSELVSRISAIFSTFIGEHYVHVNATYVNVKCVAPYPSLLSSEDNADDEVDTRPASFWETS
# UniProt P35372, whole entry, looked up: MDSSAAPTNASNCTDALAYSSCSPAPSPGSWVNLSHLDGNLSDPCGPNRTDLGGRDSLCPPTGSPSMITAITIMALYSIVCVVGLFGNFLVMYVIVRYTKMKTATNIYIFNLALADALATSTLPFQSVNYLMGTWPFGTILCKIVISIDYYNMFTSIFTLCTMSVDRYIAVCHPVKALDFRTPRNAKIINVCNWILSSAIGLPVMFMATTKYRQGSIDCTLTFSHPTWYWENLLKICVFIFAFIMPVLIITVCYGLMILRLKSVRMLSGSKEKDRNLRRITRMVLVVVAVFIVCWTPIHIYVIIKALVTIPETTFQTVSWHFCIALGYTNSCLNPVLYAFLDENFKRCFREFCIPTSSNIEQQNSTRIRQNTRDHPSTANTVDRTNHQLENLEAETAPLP
# UniProt P11362, whole entry, looked up: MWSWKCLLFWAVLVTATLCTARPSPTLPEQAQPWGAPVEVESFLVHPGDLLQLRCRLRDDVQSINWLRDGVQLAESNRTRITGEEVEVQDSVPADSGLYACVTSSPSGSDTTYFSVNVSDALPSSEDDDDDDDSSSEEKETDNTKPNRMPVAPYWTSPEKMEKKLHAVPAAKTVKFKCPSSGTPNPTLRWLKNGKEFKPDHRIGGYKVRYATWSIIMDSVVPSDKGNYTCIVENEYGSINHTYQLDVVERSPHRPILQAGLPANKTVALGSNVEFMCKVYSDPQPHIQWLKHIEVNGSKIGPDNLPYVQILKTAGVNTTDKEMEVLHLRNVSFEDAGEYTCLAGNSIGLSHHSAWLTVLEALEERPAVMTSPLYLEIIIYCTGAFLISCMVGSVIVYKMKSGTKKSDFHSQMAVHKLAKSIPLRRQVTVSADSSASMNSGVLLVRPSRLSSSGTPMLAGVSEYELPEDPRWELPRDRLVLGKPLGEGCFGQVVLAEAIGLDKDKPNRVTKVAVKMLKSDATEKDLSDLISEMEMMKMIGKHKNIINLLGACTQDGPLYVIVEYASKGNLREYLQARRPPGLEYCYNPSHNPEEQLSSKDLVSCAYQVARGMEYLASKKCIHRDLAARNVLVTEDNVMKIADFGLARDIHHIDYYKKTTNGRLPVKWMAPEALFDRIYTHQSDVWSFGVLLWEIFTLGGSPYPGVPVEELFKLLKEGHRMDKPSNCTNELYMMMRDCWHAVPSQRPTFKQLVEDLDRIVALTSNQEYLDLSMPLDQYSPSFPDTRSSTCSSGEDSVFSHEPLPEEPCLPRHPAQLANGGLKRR
# UniProt P35813: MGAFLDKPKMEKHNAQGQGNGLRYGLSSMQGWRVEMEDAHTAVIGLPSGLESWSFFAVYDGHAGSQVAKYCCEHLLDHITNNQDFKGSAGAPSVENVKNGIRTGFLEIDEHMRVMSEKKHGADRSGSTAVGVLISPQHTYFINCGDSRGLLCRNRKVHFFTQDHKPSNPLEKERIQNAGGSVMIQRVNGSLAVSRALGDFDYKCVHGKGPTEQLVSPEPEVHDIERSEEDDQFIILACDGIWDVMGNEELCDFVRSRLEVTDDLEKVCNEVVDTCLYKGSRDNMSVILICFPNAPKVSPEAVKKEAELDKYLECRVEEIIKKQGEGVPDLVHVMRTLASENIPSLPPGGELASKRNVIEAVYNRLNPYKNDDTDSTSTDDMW
# UniProt P07333, whole entry, looked up: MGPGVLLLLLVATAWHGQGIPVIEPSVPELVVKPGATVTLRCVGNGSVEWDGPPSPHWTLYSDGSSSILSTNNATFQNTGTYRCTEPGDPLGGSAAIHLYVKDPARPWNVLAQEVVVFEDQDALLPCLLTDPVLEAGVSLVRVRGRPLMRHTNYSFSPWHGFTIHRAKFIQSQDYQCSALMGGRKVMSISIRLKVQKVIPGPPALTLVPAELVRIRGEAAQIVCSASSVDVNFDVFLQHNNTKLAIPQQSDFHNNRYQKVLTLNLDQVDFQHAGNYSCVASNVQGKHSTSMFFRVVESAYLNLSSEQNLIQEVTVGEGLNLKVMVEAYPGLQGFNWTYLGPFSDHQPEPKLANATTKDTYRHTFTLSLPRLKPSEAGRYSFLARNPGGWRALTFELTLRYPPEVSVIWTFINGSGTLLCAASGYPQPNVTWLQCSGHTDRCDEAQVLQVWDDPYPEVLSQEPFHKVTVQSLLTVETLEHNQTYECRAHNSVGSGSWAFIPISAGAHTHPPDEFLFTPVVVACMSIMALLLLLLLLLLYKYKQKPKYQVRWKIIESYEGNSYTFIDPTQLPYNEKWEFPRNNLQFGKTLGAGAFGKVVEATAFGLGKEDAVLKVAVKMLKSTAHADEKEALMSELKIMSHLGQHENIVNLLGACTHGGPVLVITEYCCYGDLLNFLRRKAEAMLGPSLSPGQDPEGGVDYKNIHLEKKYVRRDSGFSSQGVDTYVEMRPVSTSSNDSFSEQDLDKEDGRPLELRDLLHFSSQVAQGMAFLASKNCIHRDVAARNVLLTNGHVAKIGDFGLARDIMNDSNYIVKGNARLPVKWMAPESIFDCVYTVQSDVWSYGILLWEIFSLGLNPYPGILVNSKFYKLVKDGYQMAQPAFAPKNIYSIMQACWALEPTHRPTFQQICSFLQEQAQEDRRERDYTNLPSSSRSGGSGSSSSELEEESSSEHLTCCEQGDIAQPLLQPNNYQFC
# UniProt P28190, whole entry, looked up: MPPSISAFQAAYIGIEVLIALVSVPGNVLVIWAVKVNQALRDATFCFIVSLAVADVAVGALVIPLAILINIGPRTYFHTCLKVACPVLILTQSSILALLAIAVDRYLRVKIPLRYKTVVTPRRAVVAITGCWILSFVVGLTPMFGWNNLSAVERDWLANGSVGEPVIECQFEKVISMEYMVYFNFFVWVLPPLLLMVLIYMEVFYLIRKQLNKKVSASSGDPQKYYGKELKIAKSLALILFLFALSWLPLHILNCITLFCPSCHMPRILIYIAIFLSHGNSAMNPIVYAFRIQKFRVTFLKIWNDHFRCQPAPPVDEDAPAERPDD
# UniProt P47900: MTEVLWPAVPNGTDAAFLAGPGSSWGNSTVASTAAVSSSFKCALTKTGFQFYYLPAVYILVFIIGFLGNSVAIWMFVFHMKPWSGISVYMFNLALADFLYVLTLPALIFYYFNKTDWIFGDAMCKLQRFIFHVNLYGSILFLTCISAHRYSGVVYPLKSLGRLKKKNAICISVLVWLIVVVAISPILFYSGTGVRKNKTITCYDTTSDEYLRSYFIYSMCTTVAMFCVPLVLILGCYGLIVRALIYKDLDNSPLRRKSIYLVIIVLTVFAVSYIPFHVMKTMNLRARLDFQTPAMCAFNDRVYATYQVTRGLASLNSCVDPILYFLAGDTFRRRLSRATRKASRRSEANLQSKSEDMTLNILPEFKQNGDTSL
# This list was built around the results that the source calls inconclusive (neither active nor inactive); the mix of calls is not that of the screen. For some assays here: Where the call is inconclusive, the potency comes from a doubtful curve fit. Activity calls are given as the source filed them. How the source made its calls: active means hit-call score of the fitted dose curve at least 0.9, where 1 is the maximum; inconclusive means response in the unintended direction; inactive means score below 0.9.
# Tests used:
# [1] = system: Thyroperoxidase (TPO), gene 54314; assay: CCTE_Simmons_AUR_rTPO: CCTE's Amplex UltraRed Assay for Thyroperoxidase (TPO) Inhibition, Simmons Lab (AID 2283662)
# How it was run: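 Endpoint is decreased Amplex UltraRed fluorescence after a 30-min, 37C reaction of rat thyroid microsomes with 300 uM H2O2. Eight test concentrations (5 nM–87.5 uM final) in 0.5% DMSO, three biological replicates each.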
# [2] = molecular target: Estrogen receptor (Homo sapiens) + Estrogen receptor beta (Homo sapiens) (UniProt P03372+Q92731); assay: OT_ER_ERaERb_1440: Odyssey Thera (OT) 24-hour HEK293T Protein-Complementation Assay for Estrogen Receptor-alpha/-beta Homodimer (AID 2283356);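 further: heteromer of ER alpha and ER beta binding domains; hits raise reporter fluorescence and both agonists and antagonists give an increase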
# How it was run: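 24 h exposure; HEK293T PCA cells with ERα/ERβ LBD fragments; signal rise in nuclear or whole-cell fluorescence over vehicle.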
# [3] = system: rat Monoamine Oxidase, MAO-A, Peripheral (MAOAP), gene 29253; assay: NVS_ENZ_rMAOAP: NovaScreen (NVS) Enzymatic Assay for rat Monoamine Oxidase, MAO-A, Peripheral (MAOAP) (AID 2283237)
# How it was run: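 Rat liver mitochondrial membranes served as the MAO-A source, with enzyme activity measured by radiometric scintillation counting 1.17 hours after dosing. Loss of signal was fitted against DMSO; primary screen used 25 uM in duplicate, follow-up used concentration series.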
# [4] = molecular target: Muscarinic acetylcholine receptor M3 (Homo sapiens) (UniProt P20309); assay: NVS_GPCR_hM3: NovaScreen (NVS) G Protein-Coupled Receptor Assay for human Muscarinic, M3 Receptor (AID 2283272)
# How it was run: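 Radioligand displacement binding on human M3 receptor in CHO-derived membranes, 1 h incubation, filter-based scintillation counting. Primary screen in duplicate at 25 uM; actives followed up in concentration series; loss of signal versus DMSO.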
# [5] = molecular target: bovine Gamma-Aminobutyric Acid Type A Receptor Agonist (GABAR Agonist), GABRA1 (gene 780973) (UniProt P08219); assay: NVS_LGIC_bGABAR_Agonist: NovaScreen (NVS) Ligand-Gated Ion Channel Assay for bovine Gamma-Aminobutyric Acid Type A Receptor Agonist (GABAR Agonist) (AID 2283338)
# How it was run: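 Radioligand binding to bovine cerebellar membranes in agonist format, read by filter-based scintillation counting after 1 h. Primary screen in duplicate at 25 uM, with actives followed in concentration series. Gain of signal versus DMSO.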
# [6] = molecular target: human MET Proto-Oncogene, Receptor Tyrosine Kinase (MET), MET (gene 4233) (UniProt P08581); assay: NVS_ENZ_hMet: NovaScreen (NVS) Enzymatic Assay for human MET Proto-Oncogene, Receptor Tyrosine Kinase (MET) (AID 2283180)
# How it was run: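 Cell-free MET kinase assay using recombinant protein and fluorescent substrate, with mobility-shift separation; read 1 h after dosing. Primary duplicate at 25 uM; actives in singleton concentration-response to 50 uM maximum. Signal loss versus DMSO.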
# [7] = NVS_GPCR_bNPY_NonSelective: NovaScreen (NVS) G Protein-Coupled Receptor Assay for bovine Neuropeptide Y (NPY) Receptor, Non-selective Binding (AID 2283245)
# How it was run: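 Bovine hippocampal membranes incubated 1 hour with radioligand and test chemical. Bound ligand measured by filter-based scintillation counting. Single-concentration screen at 25 uM in duplicate, then concentration-response up to 50 uM.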
# [8] = TOX21_PR_BLA_Followup_Antagonist_viability: Viability Assessment in the Tox21 HEK293 Progesterone Receptor (PR) Antagonism Beta-lactamase Follow-Up Assay (AID 2283936);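 further: hits lower the luminescence signal meaning cytotoxicity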
# How it was run: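 PR-UAS-bla HEK293T cells (3,000/well, 2% charcoal-stripped FBS) given compound plus R5020 agonist, 16 h at 37C. CellTiter-Glo added after bla read, 30 min at room temperature; luminescence loss indicates cytotoxicity.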
# [9] = molecular target: human Opioid Receptor Mu (Opiate Mu), OPRM1 (gene 4988) (UniProt P35372); assay: NVS_GPCR_hOpiate_mu: NovaScreen (NVS) G Protein-Coupled Receptor Assay for human Opioid Receptor Mu (Opiate Mu) (AID 2283290);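 further: hits lower bound tracer signal versus DMSO meaning displacement of the ligand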
# How it was run: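 Here, radioligand binding to CHO-extracted receptor was measured after 2.5 h using filter-based scintillation detection. Initial single-concentration screening used 25 uM in duplicate with plate controls; confirmed actives went to concentration-response testing.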
# [10] = molecular target: human Fibroblast Growth Factor Receptor 1 (FGFR1), FGFR1 (gene 2260) (UniProt P11362); assay: NVS_ENZ_hFGFR1: NovaScreen (NVS) Enzymatic Assay for human Fibroblast Growth Factor Receptor 1 (FGFR1) (AID 2283159);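 further: hits lower the signal so potencies describe inhibitors of the kinase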
# How it was run: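 Cell-free recombinant kinase with fluorescent substrate, product separated by electrophoretic mobility shift; read 1 hour after dosing, loss of signal relative to DMSO. Initial screen in duplicate at 25 uM, actives followed in concentration series.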
# [11] = molecular target: human Protein Phosphatase, Mg2+/Mn2+ Dependent 1A (PPM1A), PPM1A (gene 5494) (UniProt P35813); assay: NVS_ENZ_hPPM1A: NovaScreen (NVS) Enzymatic Assay for human Protein Phosphatase, Mg2+/Mn2+ Dependent 1A (PPM1A) (AID 2283198)
# How it was run: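 Cell-free recombinant PPM1A phosphatase assay with fluorescent substrate, read 1 h after dosing by electrophoretic mobility shift. Chemicals screened in duplicate at 25 uM, then in concentration-response up to 50 uM; loss of activity versus DMSO.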
# [12] = molecular target: Voltage-dependent N-type calcium channel subunit alpha-1B (Rattus norvegicus) (UniProt Q02294); assay: NVS_IC_rCaChN: NovaScreen (NVS) Ion Channel Assay for rat Calcium Channel, Type N (CaChN) (AID 2283317)
# [13] = molecular target: human Dopamine Transporter (DAT), SLC6A3 (gene 6531) (UniProt Q01959); assay: NVS_TR_hDAT: NovaScreen (NVS) Transporter Assay for human Dopamine Transporter (DAT) (AID 2283374);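 further: activity means loss of bound radioligand signal relative to DMSO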
# How it was run: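 Cell-free radioligand displacement binding at human DAT, 1 h after dosing, with filtration and scintillation counting. Primary screen in duplicate at 25 uM, actives then in concentration series. Loss of bound signal versus DMSO scored.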
# [14] = molecular target: rat Adenylate Cyclase, Forskolin Stimulated, Adcy5 (gene 64532) (UniProt Q04400); assay: NVS_ENZ_rACFSKBinding: NovaScreen (NVS) Enzymatic Assay for rat Adenylate Cyclase, Forskolin Stimulated (AID 2283232)
# How it was run: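 Rat forebrain membrane preparation, cell-free, read 1 h after dosing by filter-based scintillation counting. Primary screen in duplicate at 25 uM; actives (e.g. ≥30% inhibition) rerun in concentration-response up to 50 uM; fit versus DMSO.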
# [15] = molecular target: Luciferin 4-monooxygenase (Photinus pyralis) (UniProt P08659); assay: CCTE_Simmons_QuantiLum_inhib_2: CCTE's Firefly Luciferase Inhibition Assay, Simmons Lab (AID 2283767);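 further: potency for inhibitors that lower luciferase luminescence relative to DMSO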
# How it was run: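 Cell-free recombinant firefly luciferase (5 ng/well) in 200mM potassium phosphate with 1 mg/ml BSA, 30 min at 37C with 8 concentrations from 5 nM to 87.5 uM [final], 0.5% DMSO. Luminescence read after D-luciferin (150uM)/dATP (147uM) reagent injection, pH 7.8; triplicates.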
# [16] = molecular target: human Colony Stimulating Factor 1 Receptor (CSF1R), CSF1R (gene 1436) (UniProt P07333); assay: NVS_ENZ_hCSF1R: NovaScreen (NVS) Enzymatic Assay for human Colony Stimulating Factor 1 Receptor (CSF1R) (AID 2283150)
# How it was run: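 Cell-free recombinant human CSF1R kinase with fluorescent substrate, product separated by electrophoretic mobility shift; read 1 h after dosing. Primary screen at 25 uM in duplicate, actives then in concentration-response up to 50 uM, relative to DMSO.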
# [17] = molecular target: Muscarinic acetylcholine receptor M5 (Homo sapiens) (UniProt P08912); assay: NVS_GPCR_hM5: NovaScreen (NVS) G Protein-Coupled Receptor Assay for human Muscarinic, M5 Receptor (AID 2283275)
# How it was run: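 Radioligand displacement on CHO-derived membrane preparations, 1 h, filter-based scintillation counting. Single-concentration duplicate screen at 25 uM; hits (e.g. 30% inhibition) retested in singleton concentration-response up to 50 uM. Loss of binding fitted versus DMSO.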
# Caspase-1 (Homo sapiens) = Caspase-1 (Homo sapiens) (UniProt P29466); assay: NVS_ENZ_hCASP1: NovaScreen (NVS) Enzymatic Assay for human Caspase 1 (CASP1) (AID 2283132)
# How it was run: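 Cell-free enzymatic assay with E. coli-expressed recombinant protein; fluorescence intensity read 1 hour after dosing. Single-concentration duplicate screen at 25 uM, then concentration-response up to 50 uM; activity fitted relative to DMSO, loss of signal meaning inhibition.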
# [18] = molecular target: Adenosine receptor A1 (Bos taurus) (UniProt P28190); assay: NVS_GPCR_bAdoR_NonSelective: NovaScreen (NVS) G Protein-Coupled Receptor Assay for bovine Adenosine Receptor (AdoR), Non-selective Binding (AID 2283244)
# How it was run: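 Bovine striatal membranes, radioligand displacement binding, 1 h after dosing, filter-based scintillation counting. Screened in duplicate at 25 uM, then concentration-response up to 50 uM; loss of specific binding relative to DMSO.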
# [19] = molecular target: human Purinergic Receptor P2Y, P2RY1 (gene 5028) (UniProt P47900); assay: NVS_GPCR_hPY2: NovaScreen (NVS) G Protein-Coupled Receptor Assay for human Purinergic Receptor P2Y (AID 2283281)
# How it was run: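 Cell-free radioligand binding using U937-derived protein, 1 h after dosing, filter-based scintillation counting. Screened in duplicate at 25 uM; actives rerun as concentration-response up to 50 uM; loss of signal versus DMSO.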
compound,measurement,setting,value
N#CC(Br)(Br)C(N)=O,outcome,[1],inactive
Cc1ccccc1O,AC50,[2],inconclusive: 50 µM
CCCCC(C#N)(Cn1cncn1)c1ccc(Cl)cc1 (stereo not given),outcome,[3],inactive
same,AC50,[4],active: 8.08 µM
same,AC50,[5],inconclusive: 0.193 µM
ClCCOCCCl,AC50,[6],inconclusive: 25 µM
same,AC50,[7],inconclusive: 25 µM
CC(C)(C1CCC(O)CC1)C1CCC(O)CC1 (stereo not given),AC50,[8],inconclusive: 46.1 µM
ClC1=C(Cl)[C@]2(Cl)[C@H]3[C@H]([C@H]4C=C[C@H]3C4)[C@@]1(Cl)C2(Cl)Cl,outcome,[9],inactive
CN(C)C(=S)S,AC50,[10],inconclusive: 0.313 µM
same,AC50,[11],inconclusive: 8.69 µM
same,AC50,[12],inconclusive: 25 µM
CC(=O)c1ccc(-c2ccccc2)cc1,AC50,[13],active: 10.9 µM
COP(=S)(OC)SCN1C(=O)c2ccccc2C1=O,AC50,[14],inconclusive: 25 µM
same,AC50,[15],inconclusive: 0.0147 µM
CCCCCCCCCCCCc1cccc(S(=O)(=O)O)c1,AC50,[16],active: 17.3 µM
same,AC50,[17],active: 28.4 µM
CN(C)[C@@H]1C(=O)C(C(N)=O)=C(O)[C@@]2(O)C(=O)C3=C(O)c4c(O)cccc4[C@@](C)(O)[C@H]3[C@H](O)[C@@H]12,AC50,Caspase-1 (Homo sapiens),active: 11.6 µM
same,AC50,[18],inconclusive: 25 µM
same,outcome,[19],inactive

# Laid out differently: entries from further up
compound	measurement	setting	value
CCCCCCCCCCCCc1cccc(S(=O)(=O)O)c1	AC50	[16]	active: 17.3 µM
same	AC50	[17]	active: 28.4 µM
CN(C)[C@@H]1C(=O)C(C(N)=O)=C(O)[C@@]2(O)C(=O)C3=C(O)c4c(O)cccc4[C@@](C)(O)[C@H]3[C@H](O)[C@@H]12	AC50	Caspase-1 (Homo sapiens)	active: 11.6 µM
same	AC50	[18]	inconclusive: 25 µM
same	outcome	[19]	inactive
